Among the data in US20250154235A1 are binding values, retold here.

Assay [1] deals with HTT. The experiment in a line: direct ELISA on coated proteins, antibody at 4 nM, fold over background. (In an ELISA, binding on a coated surface is turned into a signal by an enzyme label.)
In assay [2] the target is TDP-43. The description is as above.
For assay [3], the target named is C9ORF72. Described as above.
In assay [4] the target is Tau. The description is as above.
Assay [5] concerns the target IAPP. Described as above.
The target in assay [6] is HTT. Put plainly: direct ELISA on coated proteins, antibody at 20 nM, fold over background.
In assay [7] the target is TDP-43. Described as above.
Assay [8] deals with C9ORF72. The description is as above.
In assay [9] the target is Tau. Described as above.
Assay [10] addresses IAPP. The assay is described as above.

These are yes or no findings as the source states them, for the method shown.

B1: NI-301.44E4 (antibody, V domains shown)
VH: EVQLVESGGGLVQPGGSLRLSCAASGFTFSSYAMIWVRQAPGKGLEWVSGISGSGSTTYYADSVKGRFAISRDKSKNTLSLQMNSLRAEDTAVYYCAKGAWEIPTYFDNWGQGTLVTVSS
VL: EIVLTQSPATLSVSPGERATLSCRASQSIRNNLAWYQQKPGQAPRLLIYGASTRATGIPARFSGTGSGTEFTLIVSSLQSEDFAVYYCQQYNNWPPTWTFGQGTKVEIK
B1: the binding result in assay [1] is given as “no binding (tested: 4 nM)”; in [2], “no binding (tested: 4 nM)”; in assay [3], “no binding (tested: 4 nM)”; in [4] it was “no binding (tested: 4 nM)”; in assay [5], “no binding (tested: 4 nM)”; in [6], “no binding (tested: 20 nM)”. Also, the binding entry in assay [7], in [8], in [9] and in assay [10] was “no binding (tested: 20 nM)” each time.
